Experimental findings from paper PMC6221296 are described below.

Protein sequences, listed by entry. Tags and fused reporters are not part of them.
UniProt P13864: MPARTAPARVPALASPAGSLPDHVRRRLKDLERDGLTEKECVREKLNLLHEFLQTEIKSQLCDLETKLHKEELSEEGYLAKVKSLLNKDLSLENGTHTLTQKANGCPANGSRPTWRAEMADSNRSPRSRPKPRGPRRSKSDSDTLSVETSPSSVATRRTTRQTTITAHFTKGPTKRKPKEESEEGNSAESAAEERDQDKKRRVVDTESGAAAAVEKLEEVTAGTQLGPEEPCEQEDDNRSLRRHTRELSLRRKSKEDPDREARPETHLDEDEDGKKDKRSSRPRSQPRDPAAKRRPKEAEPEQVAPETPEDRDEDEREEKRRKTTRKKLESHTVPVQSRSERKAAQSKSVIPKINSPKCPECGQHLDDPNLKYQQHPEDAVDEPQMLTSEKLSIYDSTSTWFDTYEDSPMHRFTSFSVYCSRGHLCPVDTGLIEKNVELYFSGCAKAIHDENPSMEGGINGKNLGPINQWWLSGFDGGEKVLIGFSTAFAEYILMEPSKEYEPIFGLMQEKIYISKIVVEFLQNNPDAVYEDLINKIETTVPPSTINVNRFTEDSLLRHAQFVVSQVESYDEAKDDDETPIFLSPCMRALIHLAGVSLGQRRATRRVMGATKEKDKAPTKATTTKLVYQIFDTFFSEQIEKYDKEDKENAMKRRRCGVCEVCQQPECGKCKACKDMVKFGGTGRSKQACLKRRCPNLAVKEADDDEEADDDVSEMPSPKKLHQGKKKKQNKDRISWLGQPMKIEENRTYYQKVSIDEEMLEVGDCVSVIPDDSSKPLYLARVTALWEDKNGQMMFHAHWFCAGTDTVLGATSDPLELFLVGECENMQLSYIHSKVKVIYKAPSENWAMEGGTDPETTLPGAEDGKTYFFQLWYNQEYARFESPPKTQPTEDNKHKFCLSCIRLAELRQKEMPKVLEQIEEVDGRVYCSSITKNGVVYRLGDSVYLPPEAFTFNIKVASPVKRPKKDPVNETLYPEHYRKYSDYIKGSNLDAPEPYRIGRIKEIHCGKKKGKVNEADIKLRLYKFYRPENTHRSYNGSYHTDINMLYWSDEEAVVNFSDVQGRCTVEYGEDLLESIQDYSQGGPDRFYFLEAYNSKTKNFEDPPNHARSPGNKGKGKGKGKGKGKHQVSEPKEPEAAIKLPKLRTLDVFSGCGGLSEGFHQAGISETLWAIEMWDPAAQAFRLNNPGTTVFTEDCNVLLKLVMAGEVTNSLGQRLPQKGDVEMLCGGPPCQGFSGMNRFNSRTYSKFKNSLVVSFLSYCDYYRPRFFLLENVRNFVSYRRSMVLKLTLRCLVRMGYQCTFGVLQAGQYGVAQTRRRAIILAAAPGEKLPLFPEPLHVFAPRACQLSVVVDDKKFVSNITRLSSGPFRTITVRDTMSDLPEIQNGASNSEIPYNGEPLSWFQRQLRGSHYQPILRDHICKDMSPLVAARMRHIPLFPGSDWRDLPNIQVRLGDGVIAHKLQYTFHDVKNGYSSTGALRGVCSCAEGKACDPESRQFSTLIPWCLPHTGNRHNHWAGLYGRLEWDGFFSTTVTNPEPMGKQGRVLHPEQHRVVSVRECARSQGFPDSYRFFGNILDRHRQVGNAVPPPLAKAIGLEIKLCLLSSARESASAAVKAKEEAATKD
UniProt Q9CWR8: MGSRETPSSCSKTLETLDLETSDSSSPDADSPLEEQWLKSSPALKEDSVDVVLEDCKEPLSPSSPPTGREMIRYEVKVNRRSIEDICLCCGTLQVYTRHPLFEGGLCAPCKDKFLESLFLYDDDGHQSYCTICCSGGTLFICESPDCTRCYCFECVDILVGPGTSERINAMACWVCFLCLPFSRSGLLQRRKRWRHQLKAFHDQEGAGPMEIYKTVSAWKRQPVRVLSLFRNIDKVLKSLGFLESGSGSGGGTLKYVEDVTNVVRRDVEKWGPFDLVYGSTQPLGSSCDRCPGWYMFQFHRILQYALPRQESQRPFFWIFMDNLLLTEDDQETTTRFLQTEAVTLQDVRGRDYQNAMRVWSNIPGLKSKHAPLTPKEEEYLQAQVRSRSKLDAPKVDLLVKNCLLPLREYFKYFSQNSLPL
UniProt O09106: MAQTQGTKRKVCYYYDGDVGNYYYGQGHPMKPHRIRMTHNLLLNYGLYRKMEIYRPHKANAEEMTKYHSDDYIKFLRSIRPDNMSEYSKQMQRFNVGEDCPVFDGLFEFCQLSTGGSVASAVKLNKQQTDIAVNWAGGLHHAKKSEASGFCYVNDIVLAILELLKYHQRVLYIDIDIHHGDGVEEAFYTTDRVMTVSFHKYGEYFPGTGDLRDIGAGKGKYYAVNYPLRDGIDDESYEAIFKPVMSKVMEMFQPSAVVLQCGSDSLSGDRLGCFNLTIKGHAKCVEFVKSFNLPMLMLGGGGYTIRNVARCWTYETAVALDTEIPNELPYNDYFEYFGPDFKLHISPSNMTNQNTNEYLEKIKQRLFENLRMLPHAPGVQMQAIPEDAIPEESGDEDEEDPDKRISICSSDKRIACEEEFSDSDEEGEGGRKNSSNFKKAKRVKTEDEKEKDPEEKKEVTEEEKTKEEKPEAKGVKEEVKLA

These are yes or no findings as the source states them, for the method shown. In cells and extracts the contact can be indirect. Some results given as binding are weak or reduced against the parent protein; the word gives no strength.

Test [1] has as its target MAX (mouse (endogenous in VV3 ESCs)) (UniProt P28574). Description: co-IP; anti-MAX antibody (Santa Cruz sc-197x) cross-linked to Protein G Dynabeads; nuclear extract of VV3 ESCs in Buffer B (20 mM Hepes-NaOH pH 7.9, 350 mM NaCl, 1.5 mM MgCl2, 0.2 mM EDTA, 0.1% NP-40, 10% glycerol, 0.5 mM DTT), overnight at 4°C; elution with 0.1 M glycine pH 3.5; Western blotting; control IgG. (In general: A western blot detects proteins with antibodies after separation by electrophoresis.)

Test [2] shares this target. As to the kind of experiment: co-IP; VV3 ESC nuclear extract fractionated on heparin (A-D) and Q sepharose (I-IV) columns; fractions A-III, B-III, C-III, D-III incubated with anti-MAX antibody-bound Protein G Dynabeads for 12 h at 4°C with Benzonase nuclease; washes with 0.15 M NaCl, 0.1% NP-40, 50 mM HEPES pH 7.4; Western blotting; control IgG.

Regarding “DNMT1 (from UniProt P13864 1-1620) (enzyme)”, in test [1], the binding entry was “binds”.

Turning to “DNMT3B (from UniProt O88509 1-859) (enzyme)”, in test [1], the binding entry is “binds”.

Consider DNMT3L (from UniProt Q9CWR8 1-421), for which the binding result in test [1] and in test [2] was “binds” each time.

In the case of “HDAC1 (from UniProt O09106 1-482) (enzyme)”, the binding entry in test [1] was “binds”.
